# In article PMC11317135:
# Chains of the proteins cited; added tags and fusions are not shown. Lines headed by an entry give the natural chain unless they say otherwise; changes in a name come on top.
# UniProt P26497: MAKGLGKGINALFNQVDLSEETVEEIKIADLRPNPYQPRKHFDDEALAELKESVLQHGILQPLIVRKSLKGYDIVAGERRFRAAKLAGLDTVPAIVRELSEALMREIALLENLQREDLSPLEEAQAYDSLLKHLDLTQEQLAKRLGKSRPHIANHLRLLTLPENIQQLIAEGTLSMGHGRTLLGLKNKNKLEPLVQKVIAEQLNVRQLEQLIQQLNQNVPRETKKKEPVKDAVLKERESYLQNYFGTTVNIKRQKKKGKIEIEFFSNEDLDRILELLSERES
# For at least one entry, the source does not settle the construct or the ends of the probe. At least one verdict rests on a figure or table, not on a statement of the authors.
# Molecular target: BsParB (Spo0J) (Bacillus subtilis) (UniProt P26497)
# Experiment: in vitro co-condensation (phase separation) imaging
# Conditions: Assay buffer; ParB storage buffer 50 mM Tris-HCl pH 7.5, 300 mM NaCl, 10% glycerol; 2 mM CTP where stated; recombinant protein; protein details: N-terminal …; label: 5'-Cy5 on upper strand
sequence,measurement,value
TCGATGCATACGTGACTGTTTCACGTGAAACATCGATGCATACGTGACATTC (double strand) [Cy5-parS],binding result,binds
